Results are given in words; binding and its absence hold for the method and conditions named. In cells and extracts the contact can be indirect. Some results given as binding are weak or reduced against the parent protein; the word gives no strength.

For the assay, the target named is T1, Ha2-Caf1 (CCR4-NOT complex 3'-5' exonuclease Caf1) (S. cerevisiae) (UniProt P39008).
T1 sequence: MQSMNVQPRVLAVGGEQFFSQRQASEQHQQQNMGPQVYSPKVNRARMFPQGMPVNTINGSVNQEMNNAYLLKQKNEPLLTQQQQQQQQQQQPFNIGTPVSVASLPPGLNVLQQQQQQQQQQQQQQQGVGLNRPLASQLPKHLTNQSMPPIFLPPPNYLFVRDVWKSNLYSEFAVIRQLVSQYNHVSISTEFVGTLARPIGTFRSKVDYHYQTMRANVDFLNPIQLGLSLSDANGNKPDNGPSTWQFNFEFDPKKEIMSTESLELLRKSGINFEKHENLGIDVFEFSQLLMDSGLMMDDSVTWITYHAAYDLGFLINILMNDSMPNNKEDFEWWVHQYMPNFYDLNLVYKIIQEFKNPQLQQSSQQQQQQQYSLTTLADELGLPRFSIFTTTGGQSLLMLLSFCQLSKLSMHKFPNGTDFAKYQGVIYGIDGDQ
Kind of assay: pull-down.

Consider “recombinant 6-His linear tetra ubiquitin (from UniProt P0CG63 1-76; P0CG63 1-76; P0CG63 1-76; P0CG63 1-76)”, for which the binding entry is “binds”.

Values taken from paper doi:10.1101/2020.05.13.093104.
